In general, AC50 refers to the concentration at which the activity in the assay is half-maximal.

The list shows a part of the results. Shown are side measurements of this screen, not its main read-out; they come without a call. Most of these compounds were active or inconclusive in the main read-out, so they are no random draw. Words in brackets tell the shape of the fitted curve; partial curves, single points and poor fits give uncertain potencies.

The nature of this test: IkB Signaling. The settings on record: ABC-DLBCL IkBa-CBG/CBR dual luciferase ratio (green luciferase fused to IkBa over red control in OCI-Ly3 lymphoma cells), 4 h; measured here: control luc red channel unless noted. In outline:
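Curves were fitted separately to fusion (green), unfused (red) and ratio luminescence, then classed by r2, magnitude and activity. Cells: OCI-Ly3, 4 h compound plus doxycycline at 37C; 10 uM MG-132 defined full response.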
In the case of `Cc1ccc(OCC(=O)Nc2ccc(S(=O)(=O)Nc3ncccn3)cc2)c(C(C)(C)C)c1`, the AC50 was 39.8 µM [falling, single point].
In the case of `O=c1c2sc3ccccc3c2n(Cc2cccc(C(F)(F)F)c2)c(=O)n1Cc1ccco1` it was 39.8 µM [falling, single point].
In the case of `Cc1cc(=O)c2cc(C(=O)Nc3ccccc3)ccc2[nH]1` it was 39.8 µM [falling, single point].
For the compound `Cc1ccc2cccc(NC(=O)c3ccc(-c4ccc(Br)cc4)o3)c2n1`, the AC50 was 7.94 µM [falling, partial curve].
Regarding `Oc1ccccc1C1=Nc2ccccc2N=C(c2ccco2)C1`, the AC50 is 5.01 µM [falling, partial curve].
For `NS(=O)(=O)c1ccc(CCNC(=O)c2nc(SCc3ccccc3F)ncc2Cl)cc1`, the AC50 was 1.26 µM [rising, partial curve].
For `COc1cccc(C2C(C(=O)Nc3ccccc3OC)=C(C)Nc3nc4ccccc4n32)c1` (stereo not given), the half-maximal activity concentration (AC50) is 6.31 µM [falling, full curve].
`COc1ccccc1NC(=O)CSc1nc(N)cc(N)n1`: the AC50 was 15.8 µM [falling, partial curve].
In the case of `COc1ccccc1N1CCN(C(=O)CCS(=O)(=O)c2cc(Br)cc3c2N(C(=O)C2CC2)CC3)CC1` it was 25.1 µM [falling, single point].
On to `COc1ccc2oc(=O)c(C(=O)NCCc3c(C)[nH]c4ccc(Br)cc34)cc2c1`, for which the AC50 was 25.1 µM [falling, single point].
Consider `Cc1ccc(-c2csc(/C(C#N)=C/c3ccccc3Cl)n2)cc1`, for which the half-maximal activity concentration (AC50) is 25.1 µM [rising, partial curve].
Turning to `Cc1ccc(-n2ncc3c(=O)n(CC(=O)N4CCCc5ccccc54)cnc32)cc1C`, the AC50 is 15.8 µM [falling, partial curve].
In the case of `COC(=O)c1ccccc1NC(=O)CNc1cc(Cl)ccc1N1CCOCC1` it was 7.94 µM [falling, partial curve].
Take `O=C(NC1CC1)c1c[nH]c2ccc(S(=O)(=O)Nc3cccc(C(F)(F)F)c3)cc2c1=O`: the AC50 is 12.6 µM [falling, partial curve].
On to `COc1cccc(CNC(=O)CCCN2C(=O)CCn3nc(-c4cccn4C)cc32)c1`, for which the AC50 is 39.8 µM [falling, single point].
In the case of `CCOC(=O)c1cccc(NC(=O)Cn2c(=O)nc(-c3ccccc3F)c3cc(Cl)ccc32)c1` it was 7.94 µM [falling, partial curve]; in that of `CCn1c(=O)c2cc(C(=O)N(CC(C)C)CC(C)C)sc2c2ccccc21`, 15.8 µM [falling, partial curve].
For the compound `CC(=O)c1ccc2c(c1)Nc1ccccc1S2`, the AC50 was 0.631 µM [rising, partial curve].
On to `CCCn1c(=O)c(C(=O)Nc2ccccc2C(=O)OCC)c(O)c2ccccc21`, for which the AC50 is 0.158 µM [falling, full curve, poor fit].
The figure for `CCOC(=O)c1ccc(NC(=O)CN2c3ccccc3S(=O)(=O)c3ccccc32)cc1` is 39.8 µM [falling, partial curve]; for `Cc1cc(C)cc(Nc2cc(C)nc3nncn23)c1` it is 25.1 µM [falling, single point].
In the case of `Cc1cccc(-c2nc3scc(CCNC(=O)c4ccc(Br)o4)n3n2)c1` it was 39.8 µM [falling, single point]; in that of `CCOC(=O)N1CCN(c2ncc3c(n2)CC(c2ccccc2O)CC3=O)CC1` (stereo not given), 25.1 µM [falling, partial curve]; in that of `COc1ccc(CCNC(=O)CCc2c(C)nc3cc(-c4ccccc4OC)nn3c2C)c(OC)c1`, 0.794 µM [falling, full curve].
The figure for `CCc1cccc(C)c1NC(=O)c1cc(S(=O)(=O)N2CCOCC2)cn1C` is 0.0316 µM [rising, full curve]; for `CCOC(=O)c1ccccc1NC(=O)n1ncc2cc(Cl)ccc21` it is 15.8 µM [falling, partial curve].
Turning to `Cc1noc(C)c1S(=O)(=O)Nc1ccc(C(=O)Nc2ccc(Br)cc2)cc1`, the AC50 is 15.8 µM [falling, partial curve].
In the case of `COc1cc(NC(=O)CCn2cnc3ccccc3c2=O)cc(OC)c1` it was 0.631 µM [rising, full curve].
The figure for `CCOc1cccc(C(=O)Nc2ccc3oc(-c4cccnc4)nc3c2)c1` is 3.16 µM [falling, full curve]; for `CCCCOc1ccc(CNC(=O)c2cc3n(n2)CCCN(Cc2ccc(C)cc2)C3=O)cc1` it is 25.1 µM [falling, partial curve].
Regarding `CCCCSCCCNC(=O)c1cn(CC)c2ccc(S(=O)(=O)N3CCCCCC3)cc2c1=O`, the AC50 was 3.16 µM [falling, partial curve].
The figure for `COc1ccc(OCCn2c(C)nc3cc(C)c(C)cc32)cc1` is 25.1 µM [falling, single point]; for `COc1ccc(-c2c(C)nn3c(N4CCN(c5ccccc5)CC4)cc(C)nc23)cc1OC` it is 15.8 µM [falling, single point]; for `COc1ccc(NC(=O)CC2C(=O)N(c3ccc(F)cc3)C(=O)N2Cc2ccc3c(c2)OCO3)cc1` (stereo not given) it is 25.1 µM [falling, single point].
As for `COc1ccc(OC)c(-c2cc(C(=O)Nc3c(C)nn(Cc4ccccc4)c3C)no2)c1`, the AC50 was 15.8 µM [falling, partial curve].
Consider `CCCn1c(=N)c(C(=O)NC2CCCC2)cc2c(=O)n3cccc(C)c3nc21`, for which the AC50 is 20 µM [falling, single point].
The figure for `CSc1ccc(CCNC(=O)c2cnn(-c3ccccc3)c2-n2cccc2)cc1` is 15.8 µM [falling, partial curve]; for `CCN(CC)c1cc(C)c2cc(NC(=O)c3cccc(F)c3)ccc2n1` it is 10 µM [falling, partial curve]; for `Cc1cccc(NC(=O)c2cc(S(=O)(=O)N3CCc4ccccc43)ccc2F)c1C` it is 6.31 µM [falling, partial curve].
In the case of `COc1ccc(N2CCN(C(=O)C3CCCN(S(=O)(=O)c4ccc5c(c4)CCCN5C(C)=O)C3)CC2)cc1` (stereo not given) it was 39.8 µM [falling, partial curve, poor fit].

The record behind these values is PubChem BioAssay AID445 (National Center for Advancing Translational Sciences (NCATS), 2006).
